The supplement of paper PMC3334620
Over roughly 33,000 sequences, “E-score (-0.5 to 0.5)” has its median near -0.016; the highest 2% begin near 0.3. This is one part of the list.

Biological target: T1, Yer184c (UniProt P39961)
T1 sequence: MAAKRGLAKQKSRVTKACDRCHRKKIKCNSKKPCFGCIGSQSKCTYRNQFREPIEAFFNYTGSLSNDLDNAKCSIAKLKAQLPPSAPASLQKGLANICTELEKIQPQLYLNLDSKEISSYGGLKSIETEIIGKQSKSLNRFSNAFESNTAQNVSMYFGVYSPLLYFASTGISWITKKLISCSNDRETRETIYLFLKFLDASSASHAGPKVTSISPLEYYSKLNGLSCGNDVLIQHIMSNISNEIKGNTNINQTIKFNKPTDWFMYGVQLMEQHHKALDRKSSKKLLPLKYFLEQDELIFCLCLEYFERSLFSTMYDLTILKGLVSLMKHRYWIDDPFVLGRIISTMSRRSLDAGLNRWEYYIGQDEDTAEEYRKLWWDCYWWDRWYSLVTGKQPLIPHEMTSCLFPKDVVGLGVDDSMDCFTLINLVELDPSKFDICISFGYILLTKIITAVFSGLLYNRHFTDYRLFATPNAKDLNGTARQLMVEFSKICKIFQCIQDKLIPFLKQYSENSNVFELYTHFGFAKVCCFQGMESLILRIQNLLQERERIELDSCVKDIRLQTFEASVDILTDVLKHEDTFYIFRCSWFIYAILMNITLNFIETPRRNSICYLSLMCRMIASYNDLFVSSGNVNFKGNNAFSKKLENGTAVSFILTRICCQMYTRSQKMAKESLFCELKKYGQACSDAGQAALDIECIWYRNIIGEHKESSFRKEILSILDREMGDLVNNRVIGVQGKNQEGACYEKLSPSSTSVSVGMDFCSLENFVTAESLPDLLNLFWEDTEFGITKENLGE
Assay: PBM E-score (8-mer binding enrichment) (E-score (-0.5 to 0.5)); higher = stronger / more preferred TF binding
Settings: protein concentration: 100 nM; construct: GST-full length
Summary of the method: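 Universal all-10-mer Agilent arrays, double-stranded by primer extension on fresh or once-stripped slides, were probed with about 100-200 nM GST-tagged yeast transcription factors made by PURExpress. Fluorescent anti-GST detected bound protein, and masliner normalised the scans. E-scores from the Universal PBM Analysis Suite were given to each ungapped eight-base word pooled with its reverse complement.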

Row | Sequence | PBM E-score
1 | CCTAATGA | -0.00493
2 | CTATGTCA | 0.0564
3 | ACTATTGG | -0.114
4 | ACCCTTGC | -0.269
5 | ACACCACA | 0.00025
6 | CAGGTCAG | -0.0812
7 | GCAGGTCA | -0.194
8 | AACCGGGT | 0.202
9 | ACACAGAA | 0.115
10 | AAGCAGCC | -0.0367
11 | GGAAACGA | 0.0401
12 | TCCGCCGA | 0.316
13 | AATGCCAT | 0.055
14 | AACCGGTT | 0.359
15 | AGAATTAA | 0.119
16 | AACAGAAC | 0.163
17 | CACCTTAC | -0.119
18 | TAGAAGGA | -0.197
19 | AGGCTCTG | -0.229
20 | ACACATGA | -0.161
21 | ATAGCGTG | -0.151
22 | ATTGATTC | 0.249
23 | AGGATAGC | 0.093
24 | TCAACTGA | -0.106
25 | AAATGGTG | 0.123

Row | Sequence | PBM E-score
26 | ACCGTCTG | -0.124
27 | TATCCAGA | 0.132
28 | CCGGGCCG | 0.429
29 | ACTGTATC | -0.113
30 | AACGCACC | -0.0986
31 | GGAAATAA | 0.319
32 | AAAAGGGG | -0.131
33 | ATCTTCGC | -0.0164
34 | ATACAGTC | -0.139
35 | ATGGAATG | -0.0127
36 | TCGTAGAA | -0.00598
37 | ATAGGTGC | -0.207
38 | CCCCGGCA | 0.0621
39 | CATTACAG | -0.117
40 | AGGCATAG | -0.0292
41 | CGAGATAA | 0.221
42 | CGCCATCA | -0.255
43 | GGGGTGTA | -0.313
44 | CGGGTTAA | 0.275
45 | AGCACCTA | -0.151
46 | CATGACGG | 0.00557
47 | CTCTCCCC | -0.334
48 | CGTCACGA | -0.0573
49 | GCTTTTCA | 0.0483
50 | CGGCTACA | 0.159

Row | Sequence | PBM E-score
51 | AGGCACTC | -0.109
52 | AATAGATA | 0.173
53 | CTCGCGAG | 0.0566
54 | GTCACGTA | -0.144
55 | AATGTTGT | -2e-05
56 | CGGTCCCA | -0.0326
57 | CCGGCGAA | 0.35
58 | AATCCGGG | 0.269
59 | AGTAAGTA | 0.119
60 | ACCCTGTC | -0.258
61 | CACGCCGA | 0.153
62 | CCGACACG | 0.00343
63 | ATGGGTGA | -0.106
64 | CTCTCTAC | -0.0939
65 | CGGTCGCA | -0.0193
66 | GGGCACCA | -0.168
67 | GTTCCACA | -0.0536
68 | ACTATTAT | 0.152
69 | GGAGCCAC | -0.216
70 | ACTGGTTC | 0.162
71 | CCGCTGCG | -0.122
72 | ATGGTCTC | 0.052
73 | ATCGAGCA | 0.0416
74 | CGCAGGCA | -0.0787
75 | CCAACCAG | -0.241

2 entries drawn at random from the list so far:
Row | Sequence | PBM E-score
59 | AGTAAGTA | 0.119
60 | ACCCTGTC | -0.258

Continuation.

Row | Sequence | PBM E-score
76 | ATACGTAA | 0.15
77 | CAAATGGG | -0.243
78 | AGCTCGAT | 0.136
79 | GATCTGGA | -0.0474
80 | GAAGCTAA | -0.0943
81 | GCTACTCC | 0.083
82 | CTGTAAAA | 0.0841
83 | ACAGTATA | -0.0135
84 | AGTTCTCA | 0.0932
85 | TATACCAA | 0.0942
86 | CGGCGAAG | 0.205
87 | GTATTGAA | 0.0799
88 | AAAAAATA | 0.112
89 | TCTGGCAA | -0.00181
90 | GCTATCAA | 0.214
91 | AGGTTATG | -0.122
92 | CGCGCGTA | -0.0439
93 | TGTCTCAA | -0.0699
94 | GTCTACCA | -0.138
95 | AACAAATC | 0.121
96 | GGCATGAA | 0.206
97 | AATGTAAT | 0.282
98 | AGAACGCC | -0.0143
99 | CCGCGTCC | 0.223
100 | GATTAACC | -0.0522

Row | Sequence | PBM E-score
101 | AATGCAAA | 0.125
102 | GGCATCTA | 0.0791
103 | GGACGTCA | -0.244
104 | ATTCTTAG | -0.122
105 | ACAAACTA | 0.131
106 | ACACCCTG | -0.248
107 | AATTCTCG | 0.134
108 | CCCCCGTC | -0.351
109 | AGGGGTAG | -0.242
110 | AGACAGTA | 0.0761
111 | GATTTTCA | 0.207
112 | GAAAGCTA | 0.00964
113 | AACGTCTG | 0.00407
114 | AATATCAT | 0.142
115 | TCCACAAA | 0.197
116 | ACTCAACT | 0.15
117 | AATCCTAA | -0.0613
118 | AAGCCACT | -0.192
119 | ACCCCTCC | -0.209
120 | ACGAGACT | -0.121
121 | CTAGCAAA | 0.114
122 | AAGGAGAT | -0.0447
123 | ACCCTACA | -0.0427
124 | CCGCAGGC | 0.104
125 | CATTCGAC | 0.0575

Row | Sequence | PBM E-score
126 | AAGCAGAA | 0.0833
127 | AATTGGGC | -0.00147
128 | CCTAGTGC | -0.0697
129 | CTACGGCC | 8e-05
130 | CGTTCCCC | -0.21
131 | TGAATGCA | -0.0178
132 | CCGGAATC | 0.336
133 | CGGGGCAC | -0.0898
134 | ACGATTTA | 0.0905
135 | GGAATCCA | 0.0185
136 | GGTAACGA | -0.013
137 | ACGTATGA | 0.19
138 | AGGAAGGG | -0.228
139 | CTCTAGCA | -0.152
140 | AATCTTGG | -0.111
141 | CGGCCGTA | 0.311
142 | ACTGTAGC | -0.0197
143 | AAAAAAAA | 0.231
144 | CCGCCAGG | -0.288
145 | CAGTGAGC | -0.276
146 | TCCTCCCA | -0.0546
147 | CACCCACA | -0.0828
148 | CCACGGGA | -0.00213
149 | GATTATCC | 0.137
150 | AGGTACAC | -0.147

Row | Sequence | PBM E-score
151 | TAGACCCA | -0.0937
152 | CGCCCCCA | -0.315
153 | GCTACTAA | 0.0486
154 | ATAGCATA | 0.00878
155 | GGAGCCAA | -0.0882
156 | GCCGGGGA | 0.0977
157 | AACGCGGA | 0.178
158 | ATTAGGGG | -0.159
159 | AGGGGTTG | -0.26
160 | ATGGTACA | -0.114
161 | GAAGAAGC | 0.0592
162 | TGCGACAA | 0.00257
163 | ACCCGAAC | 0.243
164 | GGAACCGA | 0.248
165 | CATTGACA | -0.124
166 | AGTATATG | 0.0296
167 | CCCTCGTA | -0.117
168 | CGCCCGGC | 0.213
169 | AGGGCGTG | -0.232
170 | ACACCCGA | 0.109
171 | GGAGTACC | -0.219
172 | ATGAAATC | 0.16

From no. 155 as far as 161, copied from above:
Row | Sequence | PBM E-score
155 | GGAGCCAA | -0.0882
156 | GCCGGGGA | 0.0977
157 | AACGCGGA | 0.178
158 | ATTAGGGG | -0.159
159 | AGGGGTTG | -0.26
160 | ATGGTACA | -0.114
161 | GAAGAAGC | 0.0592
